Where two headings read alike, the source gives them in different places. Results are given in words; binding and its absence hold for the method and conditions named. Binding seen in cells or lysates may run through a third protein. These calls come from enrichment with a bait or labelling near it, and not all partners need be listed. Tags and fused reporters may be left off the sequences shown.

By UniProt entry, the sequences of proteins in these tests, tags left out.
UniProt A2BH40: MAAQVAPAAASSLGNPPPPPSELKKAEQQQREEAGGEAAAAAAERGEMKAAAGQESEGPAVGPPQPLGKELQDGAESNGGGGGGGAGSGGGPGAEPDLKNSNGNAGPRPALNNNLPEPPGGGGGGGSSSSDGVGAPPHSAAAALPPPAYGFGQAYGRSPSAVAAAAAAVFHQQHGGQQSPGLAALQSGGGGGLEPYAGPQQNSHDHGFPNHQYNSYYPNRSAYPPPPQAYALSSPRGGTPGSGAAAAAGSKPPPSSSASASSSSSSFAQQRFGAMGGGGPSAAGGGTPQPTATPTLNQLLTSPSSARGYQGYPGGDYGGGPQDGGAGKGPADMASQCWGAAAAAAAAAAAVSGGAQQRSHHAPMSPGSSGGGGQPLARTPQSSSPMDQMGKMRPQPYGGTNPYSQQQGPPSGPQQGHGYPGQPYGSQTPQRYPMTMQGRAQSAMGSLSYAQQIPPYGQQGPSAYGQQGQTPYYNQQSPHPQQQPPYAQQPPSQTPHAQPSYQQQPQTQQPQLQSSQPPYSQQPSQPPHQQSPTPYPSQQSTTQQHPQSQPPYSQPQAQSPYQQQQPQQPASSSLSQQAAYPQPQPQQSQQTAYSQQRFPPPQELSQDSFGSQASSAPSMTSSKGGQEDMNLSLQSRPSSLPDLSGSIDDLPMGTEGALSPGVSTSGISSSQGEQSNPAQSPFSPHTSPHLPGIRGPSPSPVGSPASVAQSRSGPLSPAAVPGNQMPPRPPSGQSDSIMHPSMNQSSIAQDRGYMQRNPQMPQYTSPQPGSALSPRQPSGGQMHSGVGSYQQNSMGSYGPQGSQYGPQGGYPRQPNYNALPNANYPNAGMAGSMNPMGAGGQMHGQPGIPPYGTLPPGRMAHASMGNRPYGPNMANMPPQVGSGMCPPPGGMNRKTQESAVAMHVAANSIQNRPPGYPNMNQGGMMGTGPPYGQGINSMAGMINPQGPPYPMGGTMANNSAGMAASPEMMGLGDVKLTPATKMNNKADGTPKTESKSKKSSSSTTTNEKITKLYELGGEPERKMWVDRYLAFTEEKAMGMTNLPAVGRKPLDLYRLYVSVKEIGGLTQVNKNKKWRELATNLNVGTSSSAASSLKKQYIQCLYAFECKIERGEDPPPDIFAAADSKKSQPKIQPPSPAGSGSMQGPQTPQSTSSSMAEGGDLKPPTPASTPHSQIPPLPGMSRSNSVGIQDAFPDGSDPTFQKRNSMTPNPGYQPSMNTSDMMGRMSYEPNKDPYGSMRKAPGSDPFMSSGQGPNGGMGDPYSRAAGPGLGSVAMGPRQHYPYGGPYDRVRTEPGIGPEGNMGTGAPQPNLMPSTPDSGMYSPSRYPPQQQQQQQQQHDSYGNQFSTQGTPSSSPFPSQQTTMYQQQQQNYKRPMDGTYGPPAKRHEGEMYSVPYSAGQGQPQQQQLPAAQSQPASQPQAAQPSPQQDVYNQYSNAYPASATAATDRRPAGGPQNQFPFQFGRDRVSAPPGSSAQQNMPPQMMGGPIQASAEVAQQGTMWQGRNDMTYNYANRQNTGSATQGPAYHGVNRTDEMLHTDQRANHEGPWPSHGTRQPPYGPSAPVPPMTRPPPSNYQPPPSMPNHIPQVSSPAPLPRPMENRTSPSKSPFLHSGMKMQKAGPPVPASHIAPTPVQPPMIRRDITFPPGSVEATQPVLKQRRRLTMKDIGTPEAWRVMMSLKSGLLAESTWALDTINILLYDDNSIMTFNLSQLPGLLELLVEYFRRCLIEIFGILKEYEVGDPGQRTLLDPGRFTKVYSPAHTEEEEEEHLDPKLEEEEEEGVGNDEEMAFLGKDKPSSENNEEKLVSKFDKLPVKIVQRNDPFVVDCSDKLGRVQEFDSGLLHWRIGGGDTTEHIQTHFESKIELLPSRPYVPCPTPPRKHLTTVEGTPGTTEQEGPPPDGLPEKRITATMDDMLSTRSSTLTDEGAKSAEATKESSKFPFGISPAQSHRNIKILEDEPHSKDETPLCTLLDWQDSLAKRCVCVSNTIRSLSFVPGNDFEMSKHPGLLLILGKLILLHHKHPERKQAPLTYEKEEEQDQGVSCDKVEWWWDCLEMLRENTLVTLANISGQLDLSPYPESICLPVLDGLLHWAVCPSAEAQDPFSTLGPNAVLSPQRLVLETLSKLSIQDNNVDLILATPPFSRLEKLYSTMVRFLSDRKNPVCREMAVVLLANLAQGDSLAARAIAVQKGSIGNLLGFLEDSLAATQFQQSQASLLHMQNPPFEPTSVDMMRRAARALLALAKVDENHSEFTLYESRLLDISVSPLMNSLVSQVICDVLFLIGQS
UniProt Q61686: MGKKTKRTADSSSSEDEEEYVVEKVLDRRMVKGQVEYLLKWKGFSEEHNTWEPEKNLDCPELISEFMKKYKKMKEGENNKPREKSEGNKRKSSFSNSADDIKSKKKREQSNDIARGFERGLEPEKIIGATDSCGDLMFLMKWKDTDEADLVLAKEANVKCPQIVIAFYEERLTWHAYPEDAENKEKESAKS
UniProt Q62095: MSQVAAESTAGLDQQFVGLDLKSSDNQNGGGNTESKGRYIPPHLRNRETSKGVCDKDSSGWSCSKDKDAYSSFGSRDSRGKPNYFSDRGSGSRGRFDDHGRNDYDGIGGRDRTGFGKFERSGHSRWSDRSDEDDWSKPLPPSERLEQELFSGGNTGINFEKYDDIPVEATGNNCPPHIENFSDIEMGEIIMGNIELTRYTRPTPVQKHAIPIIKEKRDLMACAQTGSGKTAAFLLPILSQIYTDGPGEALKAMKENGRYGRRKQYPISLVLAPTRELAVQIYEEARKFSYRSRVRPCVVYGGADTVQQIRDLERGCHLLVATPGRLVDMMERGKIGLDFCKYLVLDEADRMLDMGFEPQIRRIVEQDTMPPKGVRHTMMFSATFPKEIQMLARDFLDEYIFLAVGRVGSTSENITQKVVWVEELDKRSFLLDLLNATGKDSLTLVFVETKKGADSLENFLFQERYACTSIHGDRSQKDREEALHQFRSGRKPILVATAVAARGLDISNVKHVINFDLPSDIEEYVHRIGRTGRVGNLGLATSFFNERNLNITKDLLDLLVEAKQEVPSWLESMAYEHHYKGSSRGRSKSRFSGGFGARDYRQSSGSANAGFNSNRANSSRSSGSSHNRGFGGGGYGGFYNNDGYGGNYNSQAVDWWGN
UniProt Q61103: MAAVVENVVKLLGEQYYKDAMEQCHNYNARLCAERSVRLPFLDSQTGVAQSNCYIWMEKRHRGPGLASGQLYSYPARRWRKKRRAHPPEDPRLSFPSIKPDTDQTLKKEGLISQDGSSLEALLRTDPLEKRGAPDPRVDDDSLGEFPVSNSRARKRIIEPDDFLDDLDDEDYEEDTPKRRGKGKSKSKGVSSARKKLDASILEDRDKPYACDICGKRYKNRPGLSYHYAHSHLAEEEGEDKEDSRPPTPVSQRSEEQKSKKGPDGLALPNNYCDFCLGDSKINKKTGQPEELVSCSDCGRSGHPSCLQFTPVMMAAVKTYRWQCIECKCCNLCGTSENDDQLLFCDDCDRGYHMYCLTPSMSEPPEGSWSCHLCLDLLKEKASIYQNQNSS
UniProt Q8BX22: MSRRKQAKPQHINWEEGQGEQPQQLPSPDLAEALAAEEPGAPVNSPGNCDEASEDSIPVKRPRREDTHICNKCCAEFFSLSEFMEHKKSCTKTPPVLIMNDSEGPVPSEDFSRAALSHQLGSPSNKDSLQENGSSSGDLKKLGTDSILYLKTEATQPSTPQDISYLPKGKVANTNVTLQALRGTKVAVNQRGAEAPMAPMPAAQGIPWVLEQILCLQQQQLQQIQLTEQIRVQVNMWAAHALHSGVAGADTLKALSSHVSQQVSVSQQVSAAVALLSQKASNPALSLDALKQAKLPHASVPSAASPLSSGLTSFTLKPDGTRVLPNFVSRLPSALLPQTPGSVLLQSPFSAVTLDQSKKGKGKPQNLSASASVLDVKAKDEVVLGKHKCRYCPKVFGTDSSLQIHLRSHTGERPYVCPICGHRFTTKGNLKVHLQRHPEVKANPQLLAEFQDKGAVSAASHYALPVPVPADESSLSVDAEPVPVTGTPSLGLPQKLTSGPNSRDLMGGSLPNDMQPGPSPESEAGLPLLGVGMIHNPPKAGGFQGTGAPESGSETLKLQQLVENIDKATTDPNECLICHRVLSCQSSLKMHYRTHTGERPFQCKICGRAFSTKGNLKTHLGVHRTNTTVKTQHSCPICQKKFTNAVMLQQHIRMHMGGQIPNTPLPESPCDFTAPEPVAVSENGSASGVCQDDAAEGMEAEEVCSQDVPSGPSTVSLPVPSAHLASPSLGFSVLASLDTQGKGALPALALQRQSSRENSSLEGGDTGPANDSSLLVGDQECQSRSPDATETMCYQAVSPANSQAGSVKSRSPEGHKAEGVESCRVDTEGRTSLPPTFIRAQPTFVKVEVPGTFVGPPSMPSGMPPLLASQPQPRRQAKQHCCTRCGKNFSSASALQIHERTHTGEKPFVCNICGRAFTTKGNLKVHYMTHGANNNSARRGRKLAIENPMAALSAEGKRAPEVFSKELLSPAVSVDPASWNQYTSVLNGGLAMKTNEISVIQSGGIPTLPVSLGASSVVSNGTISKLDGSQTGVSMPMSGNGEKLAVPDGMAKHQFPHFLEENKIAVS
UniProt P97496: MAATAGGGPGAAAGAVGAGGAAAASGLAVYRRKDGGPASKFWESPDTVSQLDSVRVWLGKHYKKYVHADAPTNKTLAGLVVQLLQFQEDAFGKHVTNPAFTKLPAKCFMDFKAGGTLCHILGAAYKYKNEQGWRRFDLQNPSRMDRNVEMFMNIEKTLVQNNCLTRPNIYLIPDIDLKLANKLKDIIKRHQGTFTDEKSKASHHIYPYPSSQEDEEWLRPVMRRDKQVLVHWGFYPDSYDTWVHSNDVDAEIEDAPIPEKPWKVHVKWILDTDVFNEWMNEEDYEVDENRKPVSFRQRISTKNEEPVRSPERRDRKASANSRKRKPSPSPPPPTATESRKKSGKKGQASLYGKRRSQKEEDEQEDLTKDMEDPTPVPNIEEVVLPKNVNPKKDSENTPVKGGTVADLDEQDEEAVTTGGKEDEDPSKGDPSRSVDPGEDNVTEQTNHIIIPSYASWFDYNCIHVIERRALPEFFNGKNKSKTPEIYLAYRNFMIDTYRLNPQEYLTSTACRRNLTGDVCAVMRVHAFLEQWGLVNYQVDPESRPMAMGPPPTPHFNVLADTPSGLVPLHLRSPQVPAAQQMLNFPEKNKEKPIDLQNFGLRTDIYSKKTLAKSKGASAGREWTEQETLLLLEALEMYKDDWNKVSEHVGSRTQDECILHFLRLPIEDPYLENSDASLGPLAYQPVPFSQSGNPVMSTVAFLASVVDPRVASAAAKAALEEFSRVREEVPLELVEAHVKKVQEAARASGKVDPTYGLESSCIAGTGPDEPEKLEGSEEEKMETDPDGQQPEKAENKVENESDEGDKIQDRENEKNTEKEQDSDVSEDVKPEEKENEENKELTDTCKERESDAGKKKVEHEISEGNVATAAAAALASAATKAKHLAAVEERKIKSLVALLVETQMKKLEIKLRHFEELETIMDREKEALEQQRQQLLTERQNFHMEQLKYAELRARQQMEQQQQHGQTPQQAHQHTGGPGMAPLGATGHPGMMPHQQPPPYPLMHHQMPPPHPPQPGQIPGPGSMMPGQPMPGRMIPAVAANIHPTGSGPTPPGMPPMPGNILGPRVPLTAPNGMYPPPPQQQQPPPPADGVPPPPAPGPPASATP
UniProt Q02248: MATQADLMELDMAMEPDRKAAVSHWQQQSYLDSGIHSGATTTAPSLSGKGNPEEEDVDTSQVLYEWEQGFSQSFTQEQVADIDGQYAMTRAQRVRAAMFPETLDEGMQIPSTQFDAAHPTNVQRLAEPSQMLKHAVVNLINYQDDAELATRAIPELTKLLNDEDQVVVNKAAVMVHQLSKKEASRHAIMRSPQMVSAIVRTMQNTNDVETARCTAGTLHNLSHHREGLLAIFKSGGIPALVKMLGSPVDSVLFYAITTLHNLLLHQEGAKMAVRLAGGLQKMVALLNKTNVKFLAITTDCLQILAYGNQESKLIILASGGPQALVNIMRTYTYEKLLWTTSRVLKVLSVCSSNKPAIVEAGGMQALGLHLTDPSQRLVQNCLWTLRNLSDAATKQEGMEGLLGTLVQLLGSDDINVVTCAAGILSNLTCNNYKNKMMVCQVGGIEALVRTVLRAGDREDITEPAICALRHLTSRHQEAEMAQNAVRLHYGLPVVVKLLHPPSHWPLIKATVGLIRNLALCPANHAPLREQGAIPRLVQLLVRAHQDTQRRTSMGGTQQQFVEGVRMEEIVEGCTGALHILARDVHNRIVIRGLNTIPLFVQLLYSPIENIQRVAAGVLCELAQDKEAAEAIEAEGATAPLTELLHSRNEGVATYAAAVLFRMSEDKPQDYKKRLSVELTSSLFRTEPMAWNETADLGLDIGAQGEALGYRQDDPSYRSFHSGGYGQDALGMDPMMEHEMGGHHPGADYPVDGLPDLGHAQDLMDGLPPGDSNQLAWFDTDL

The values that follow come from doi:10.1101/431023.

What all share (experiment): proximity labelling
The target in assay [1] is T1, dox-inducible 3xFLAG-BirA*-tagged TCF7L1 in the Rosa26 locus (UniProt Q9Z1J1).
T1 sequence: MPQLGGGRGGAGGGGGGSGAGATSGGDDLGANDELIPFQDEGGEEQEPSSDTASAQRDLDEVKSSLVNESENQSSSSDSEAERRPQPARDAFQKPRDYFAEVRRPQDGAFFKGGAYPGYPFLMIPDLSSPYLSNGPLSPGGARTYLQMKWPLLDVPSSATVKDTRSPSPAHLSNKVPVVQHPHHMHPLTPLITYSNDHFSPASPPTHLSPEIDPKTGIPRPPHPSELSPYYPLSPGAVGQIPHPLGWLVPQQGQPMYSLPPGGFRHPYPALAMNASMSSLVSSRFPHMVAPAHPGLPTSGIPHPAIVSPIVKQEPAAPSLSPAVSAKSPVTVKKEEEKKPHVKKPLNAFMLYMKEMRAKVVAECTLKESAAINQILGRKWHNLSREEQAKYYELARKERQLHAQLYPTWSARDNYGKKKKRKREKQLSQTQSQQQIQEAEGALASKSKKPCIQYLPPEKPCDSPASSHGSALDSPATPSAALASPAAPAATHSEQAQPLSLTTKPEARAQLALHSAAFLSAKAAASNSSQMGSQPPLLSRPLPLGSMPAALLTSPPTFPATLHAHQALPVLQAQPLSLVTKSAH

Assay [2] deals with T2, 3xFLAG-BirA*-tagged TCF7L1 at the endogenous TCF7L1 locus (mouse (endogenous in mESCs)) (UniProt Q9Z1J1).
T2 sequence: T1 sequence

Assay [3] deals with T1, dox-inducible 3xFLAG-BirA*-tagged TCF7L1 in the Rosa26 locus. The source holds these as a separate data set.

On to AHDC1 (from UniProt Q6PAL7 1-1594), for which the binding result in assay [1] was “binds”.
On the same count and under the same terms, then APC (from UniProt Q61315 1-2845), with “binds”.
Take ARID1A (from UniProt A2BH40 1-2283): the binding entry in assay [1] and in assay [2] was “binds” in each case.
For the molecule ARID1B (from UniProt E9Q4N7 1-2306), the binding entry in assay [1] and in assay [2] was “binds” throughout.
“BCL-6 Corepressor (BCOR) (from UniProt Q8CGN4 1-1759)”: the binding result in assay [1] and in assay [2] was “binds” each time.
Take CBP (from UniProt P45481 1-2441): the binding result in assay [1] is reported as “binds”.
CBX5 (from UniProt Q61686 1-191): in assay [2], the binding result is recorded as “binds”.
Turning to DDX3Y (from UniProt Q62095 1-658), in assay [2], the binding entry is listed as “binds”.
DPF2 (from UniProt Q61103 1-391): the binding result in assay [1] and in assay [2] was “binds” in each case.
Take EIF4A2 (from UniProt P10630 1-407): the binding entry in assay [2] is on record as “binds”.
With EP400 (from UniProt Q8CHI8 1-3072), the binding entry in assay [1] is recorded as “binds”.
Take GATAD2B (from UniProt Q8VHR5 1-594): in assay [2], the binding entry is recorded as “binds”.
The same measure, in the same setting: the value for MDN1 (from UniProt A2ANY6 1-5589) was “binds”.
In the case of NCOR1 (from UniProt Q60974 1-2453), the binding entry in assay [1] and in assay [2] was “binds” in each case.
In the case of PRR12 (from UniProt E9PYL2 1-2035), the binding entry in assay [1] and in assay [2] was “binds” each time.
Regarding RBBP5 (from UniProt Q8BX09 1-538), in assay [2], the binding result is “binds”.
In the case of SALL4 (from UniProt Q8BX22 1-1067), the binding entry in assay [1] and in assay [2] was “binds” each time.
SMARCC1 (from UniProt P97496 1-1104): the binding entry in assay [1] and in assay [2] was “binds” each time.
Turning to SMARCD1 (from UniProt Q61466 1-515), the binding entry in assay [1] and in assay [2] was “binds” each time.
SMARCD2 (from UniProt Q99JR8 1-531): the binding entry in assay [1] is “binds”.
On to SMARCE1 (from UniProt O54941 1-411), for which the binding result in assay [1] and in assay [2] was “binds” throughout.
Turning to SPEN (from UniProt Q62504 1-3644), the binding result in assay [1] and in assay [2] was “binds” throughout.
Turning to TET1 (from UniProt Q3URK3 1-2039), the binding result in assay [1] and in assay [2] was “binds” throughout.
In the case of TLE3 (from UniProt Q08122 1-772), the binding entry in assay [1] and in assay [2] was “binds” in each case.
For the molecule TLE4 (from UniProt Q62441 1-773), the binding entry in assay [1] and in assay [2] was “binds” each time.
Turning to β-catenin (from UniProt Q02248 1-781), the binding result in assay [1] and in assay [2] was “binds” in each case.

B1: BCL9L (protein, UniProt Q67FY2 1-1494)
chain: MRILANKTRLPHPRRREAPGSPPLSPRGHCPPAPAKPMHPENKLTNHGKTGNGGAQSQHQNVNQGPTCNLGSKGVGAGSHGAKANQISPSNSSLKNPQAGVSPFSSLKGKVKRERSVSVDSGEQREAGTPSLDSEAKEVAPRSKRRCVLERKQPYSGDEWCSGPDSEEDDKPIAAAHNCNVADPAMVTPQLGPGQTAQLPLSESSAPGPQHGPQPGLRPDVPGGGGGGVPGKPPSQFVYVFTTHLANTAAEAVLQGRAESILAYHQQNVPRAKLDQAPKVPPTPEPLPLNTPSAGTPQSQPPPLPPPPPAPGSAPPALPPEGPPEDTSQDLAPNSVGAASTGGGTGGTHPNTPTAATANNPLPPGGDPGSAPGSALLGEATPTGNGQRNLVGSEGLSKEQLEHRERSLQTLRDIERLLLRSGETEPFLKGPPGGAGEGGPPAQAPSAAQPPPSAPPGGLKKYEEPLQSMISQTQSLGGPPLEHEVPGHPQGGDMGQQMNMMMQRLGQDSLTPEQVAWRKLQEEYYEEKRRKEEQIGLHGGRPLQDMVGMGGMMGRGPPPPYHSKPGDQWPPGMGAQLRGPMDVQDPMQLRPGPPFPGPRFPGNQMQRVPGFGGMQSMPMEVPMNAMQRPVRPGMAWNEDLPPIGGPSNFAQNAVPYPGGQGEAERFMTPRVREELLRHQLLEKRSMGMQRPLGMAGSGMGQSMEMERMIQAHRQMDPAMFPGQMTGGDGLAGTPMGIEFGGGRGLLSPPMGQSGLREVDPPMGPGNLNMNMNVNMNMNMNLNVQMTPQQQMLMSQKMRGPGDMMGPQGLSPEEMARVRAQNSSGMMGGPQKMLMPSQFPNQGQQGFSGGQGPYQAMPQDMGNTPDMFSPDQSSVPMGTVGTARLSHMPLPPASNPPGSVHLASNRGLGRRPSDLTISINQMGSPGMGHLKSPTLSQVHSPLVTSPSANLKSPQTPSQMVPLPSANPPGPLKSPQVLSSSLGVRSPTGSPSRLKSPSMAVPSPGWVASPKTAMPSPGVSQNKQPPLSINSSSTLGNVEQGALPPSAPRNSSSAPPANPSSGLMNPSLPFTSSPDPTPSQNPLSLMMSQMSKYAMPSSTPLYHNAIKTIATSDDELLPDRPLLPPPPPPQGSGPGISNNQPNQMHMNPAAAQSPMGMNLPGQQPLSHEPPPTMLPSPTPLGSNIPLHPNAQGTGGSSQNSMMMAPGGPDSLNAPCGPVPSSSQMMSFPPRLQQPHGAMAPTGAGGPGLQQHYPSGMALPPEDLPTQPPGPIPPQQHLMGKGMTGRMGDAYPPGVLPGVASVLNDPELSEVIRPTPTGIPEFDLSRIIPSEKPSSTLQYFPKSENQPPKAQPPNLHLMNLQNMMAEQTPSRPPNLPGQQGVQRGLSMSMCHPGQMSLLGRTGVPPQQGMVPHGLHQGVMSPPQGLMTQQNFMLMKQRGVGGEVYTQPPHMLSPQGSLMGPPPQQNLMVSHPLRQRSVSLDSQMGYLPTPGSMANLPF
As to B1, the binding result in assay [3] is reported as “binds”.

B2: OGT (protein, UniProt Q8CGY8 1-1046)
chain: MASSVGNVADSTEPTKRMLSFQGLAELAHREYQAGDFEAAERHCMQLWRQEPDNTGVLLLLSSIHFQCRRLDRSAHFSTLAIKQNPLLAEAYSNLGNVYKERGQLQEAIEHYRHALRLKPDFIDGYINLAAALVAAGDMEGAVQAYVSALQYNPDLYCVRSDLGNLLKALGRLEEAKACYLKAIETQPNFAVAWSNLGCVFNAQGEIWLAIHHFEKAVTLDPNFLDAYINLGNVLKEARIFDRAVAAYLRALSLSPNHAVVHGNLACVYYEQGLIDLAIDTYRRAIELQPHFPDAYCNLANALKEKGSVAEAEDCYNTALRLCPTHADSLNNLANIKREQGNIEEAVRLYRKALEVFPEFAAAHSNLASVLQQQGKLQEALMHYKEAIRISPTFADAYSNMGNTLKEMQDVQGALQCYTRAIQINPAFADAHSNLASIHKDSGNIPEAIASYRTALKLKPDFPDAYCNLAHCLQIVCDWTDYDERMKKLVSIVAEQLEKNRLPSVHPHHSMLYPLSHGFRKAIAERHGNLCLDKINVLHKPPYEHPKDLKLSDGRLRVGYVSSDFGNHPTSHLMQSIPGMHNPDKFEVFCYALSPDDGTNFRVKVMAEANHFIDLSQIPCNGKAADRIHQDGIHILVNMNGYTKGARNELFALRPAPIQAMWLGYPGTSGALFMDYIITDQETSPAEVAEQYSEKLAYMPHTFFIGDHANMFPHLKKKAVIDFKSNGHIYDNRIVLNGIDLKAFLDSLPDVKIVKMKCPDGGDNPDSSNTALNMPVIPMNTIAEAVIEMINRGQIQITINGFSISNGLATTQINNKAATGEEVPRTIIVTTRSQYGLPEDAIVYCNFNQLYKIDPSTLQMWANILKRVPNSVLWLLRFPAVGEPNIQQYAQNMGLPQNRIIFSPVAPKEEHVRRGQLADVCLDTPLCNGHTTGMDVLWAGTPMVTMPGETLASRVAASQLTCLGCLELIAKSRQEYEDIAVKLGTDLEYLKKIRGKVWKQRISSPLFNTKQYTMELERLYLQMWEHYAAGNKPDHMIKPVEVTESA
With B2, the binding entry in assay [3] is “binds”.
